Drawing on patent US20050250692A1, this text covers binding for two molecules.

Protein sequences, listed by entry. Tags and fused reporters are not part of them. Residues count along the entry.
UniProt Q91ZX7, residues 20-4545: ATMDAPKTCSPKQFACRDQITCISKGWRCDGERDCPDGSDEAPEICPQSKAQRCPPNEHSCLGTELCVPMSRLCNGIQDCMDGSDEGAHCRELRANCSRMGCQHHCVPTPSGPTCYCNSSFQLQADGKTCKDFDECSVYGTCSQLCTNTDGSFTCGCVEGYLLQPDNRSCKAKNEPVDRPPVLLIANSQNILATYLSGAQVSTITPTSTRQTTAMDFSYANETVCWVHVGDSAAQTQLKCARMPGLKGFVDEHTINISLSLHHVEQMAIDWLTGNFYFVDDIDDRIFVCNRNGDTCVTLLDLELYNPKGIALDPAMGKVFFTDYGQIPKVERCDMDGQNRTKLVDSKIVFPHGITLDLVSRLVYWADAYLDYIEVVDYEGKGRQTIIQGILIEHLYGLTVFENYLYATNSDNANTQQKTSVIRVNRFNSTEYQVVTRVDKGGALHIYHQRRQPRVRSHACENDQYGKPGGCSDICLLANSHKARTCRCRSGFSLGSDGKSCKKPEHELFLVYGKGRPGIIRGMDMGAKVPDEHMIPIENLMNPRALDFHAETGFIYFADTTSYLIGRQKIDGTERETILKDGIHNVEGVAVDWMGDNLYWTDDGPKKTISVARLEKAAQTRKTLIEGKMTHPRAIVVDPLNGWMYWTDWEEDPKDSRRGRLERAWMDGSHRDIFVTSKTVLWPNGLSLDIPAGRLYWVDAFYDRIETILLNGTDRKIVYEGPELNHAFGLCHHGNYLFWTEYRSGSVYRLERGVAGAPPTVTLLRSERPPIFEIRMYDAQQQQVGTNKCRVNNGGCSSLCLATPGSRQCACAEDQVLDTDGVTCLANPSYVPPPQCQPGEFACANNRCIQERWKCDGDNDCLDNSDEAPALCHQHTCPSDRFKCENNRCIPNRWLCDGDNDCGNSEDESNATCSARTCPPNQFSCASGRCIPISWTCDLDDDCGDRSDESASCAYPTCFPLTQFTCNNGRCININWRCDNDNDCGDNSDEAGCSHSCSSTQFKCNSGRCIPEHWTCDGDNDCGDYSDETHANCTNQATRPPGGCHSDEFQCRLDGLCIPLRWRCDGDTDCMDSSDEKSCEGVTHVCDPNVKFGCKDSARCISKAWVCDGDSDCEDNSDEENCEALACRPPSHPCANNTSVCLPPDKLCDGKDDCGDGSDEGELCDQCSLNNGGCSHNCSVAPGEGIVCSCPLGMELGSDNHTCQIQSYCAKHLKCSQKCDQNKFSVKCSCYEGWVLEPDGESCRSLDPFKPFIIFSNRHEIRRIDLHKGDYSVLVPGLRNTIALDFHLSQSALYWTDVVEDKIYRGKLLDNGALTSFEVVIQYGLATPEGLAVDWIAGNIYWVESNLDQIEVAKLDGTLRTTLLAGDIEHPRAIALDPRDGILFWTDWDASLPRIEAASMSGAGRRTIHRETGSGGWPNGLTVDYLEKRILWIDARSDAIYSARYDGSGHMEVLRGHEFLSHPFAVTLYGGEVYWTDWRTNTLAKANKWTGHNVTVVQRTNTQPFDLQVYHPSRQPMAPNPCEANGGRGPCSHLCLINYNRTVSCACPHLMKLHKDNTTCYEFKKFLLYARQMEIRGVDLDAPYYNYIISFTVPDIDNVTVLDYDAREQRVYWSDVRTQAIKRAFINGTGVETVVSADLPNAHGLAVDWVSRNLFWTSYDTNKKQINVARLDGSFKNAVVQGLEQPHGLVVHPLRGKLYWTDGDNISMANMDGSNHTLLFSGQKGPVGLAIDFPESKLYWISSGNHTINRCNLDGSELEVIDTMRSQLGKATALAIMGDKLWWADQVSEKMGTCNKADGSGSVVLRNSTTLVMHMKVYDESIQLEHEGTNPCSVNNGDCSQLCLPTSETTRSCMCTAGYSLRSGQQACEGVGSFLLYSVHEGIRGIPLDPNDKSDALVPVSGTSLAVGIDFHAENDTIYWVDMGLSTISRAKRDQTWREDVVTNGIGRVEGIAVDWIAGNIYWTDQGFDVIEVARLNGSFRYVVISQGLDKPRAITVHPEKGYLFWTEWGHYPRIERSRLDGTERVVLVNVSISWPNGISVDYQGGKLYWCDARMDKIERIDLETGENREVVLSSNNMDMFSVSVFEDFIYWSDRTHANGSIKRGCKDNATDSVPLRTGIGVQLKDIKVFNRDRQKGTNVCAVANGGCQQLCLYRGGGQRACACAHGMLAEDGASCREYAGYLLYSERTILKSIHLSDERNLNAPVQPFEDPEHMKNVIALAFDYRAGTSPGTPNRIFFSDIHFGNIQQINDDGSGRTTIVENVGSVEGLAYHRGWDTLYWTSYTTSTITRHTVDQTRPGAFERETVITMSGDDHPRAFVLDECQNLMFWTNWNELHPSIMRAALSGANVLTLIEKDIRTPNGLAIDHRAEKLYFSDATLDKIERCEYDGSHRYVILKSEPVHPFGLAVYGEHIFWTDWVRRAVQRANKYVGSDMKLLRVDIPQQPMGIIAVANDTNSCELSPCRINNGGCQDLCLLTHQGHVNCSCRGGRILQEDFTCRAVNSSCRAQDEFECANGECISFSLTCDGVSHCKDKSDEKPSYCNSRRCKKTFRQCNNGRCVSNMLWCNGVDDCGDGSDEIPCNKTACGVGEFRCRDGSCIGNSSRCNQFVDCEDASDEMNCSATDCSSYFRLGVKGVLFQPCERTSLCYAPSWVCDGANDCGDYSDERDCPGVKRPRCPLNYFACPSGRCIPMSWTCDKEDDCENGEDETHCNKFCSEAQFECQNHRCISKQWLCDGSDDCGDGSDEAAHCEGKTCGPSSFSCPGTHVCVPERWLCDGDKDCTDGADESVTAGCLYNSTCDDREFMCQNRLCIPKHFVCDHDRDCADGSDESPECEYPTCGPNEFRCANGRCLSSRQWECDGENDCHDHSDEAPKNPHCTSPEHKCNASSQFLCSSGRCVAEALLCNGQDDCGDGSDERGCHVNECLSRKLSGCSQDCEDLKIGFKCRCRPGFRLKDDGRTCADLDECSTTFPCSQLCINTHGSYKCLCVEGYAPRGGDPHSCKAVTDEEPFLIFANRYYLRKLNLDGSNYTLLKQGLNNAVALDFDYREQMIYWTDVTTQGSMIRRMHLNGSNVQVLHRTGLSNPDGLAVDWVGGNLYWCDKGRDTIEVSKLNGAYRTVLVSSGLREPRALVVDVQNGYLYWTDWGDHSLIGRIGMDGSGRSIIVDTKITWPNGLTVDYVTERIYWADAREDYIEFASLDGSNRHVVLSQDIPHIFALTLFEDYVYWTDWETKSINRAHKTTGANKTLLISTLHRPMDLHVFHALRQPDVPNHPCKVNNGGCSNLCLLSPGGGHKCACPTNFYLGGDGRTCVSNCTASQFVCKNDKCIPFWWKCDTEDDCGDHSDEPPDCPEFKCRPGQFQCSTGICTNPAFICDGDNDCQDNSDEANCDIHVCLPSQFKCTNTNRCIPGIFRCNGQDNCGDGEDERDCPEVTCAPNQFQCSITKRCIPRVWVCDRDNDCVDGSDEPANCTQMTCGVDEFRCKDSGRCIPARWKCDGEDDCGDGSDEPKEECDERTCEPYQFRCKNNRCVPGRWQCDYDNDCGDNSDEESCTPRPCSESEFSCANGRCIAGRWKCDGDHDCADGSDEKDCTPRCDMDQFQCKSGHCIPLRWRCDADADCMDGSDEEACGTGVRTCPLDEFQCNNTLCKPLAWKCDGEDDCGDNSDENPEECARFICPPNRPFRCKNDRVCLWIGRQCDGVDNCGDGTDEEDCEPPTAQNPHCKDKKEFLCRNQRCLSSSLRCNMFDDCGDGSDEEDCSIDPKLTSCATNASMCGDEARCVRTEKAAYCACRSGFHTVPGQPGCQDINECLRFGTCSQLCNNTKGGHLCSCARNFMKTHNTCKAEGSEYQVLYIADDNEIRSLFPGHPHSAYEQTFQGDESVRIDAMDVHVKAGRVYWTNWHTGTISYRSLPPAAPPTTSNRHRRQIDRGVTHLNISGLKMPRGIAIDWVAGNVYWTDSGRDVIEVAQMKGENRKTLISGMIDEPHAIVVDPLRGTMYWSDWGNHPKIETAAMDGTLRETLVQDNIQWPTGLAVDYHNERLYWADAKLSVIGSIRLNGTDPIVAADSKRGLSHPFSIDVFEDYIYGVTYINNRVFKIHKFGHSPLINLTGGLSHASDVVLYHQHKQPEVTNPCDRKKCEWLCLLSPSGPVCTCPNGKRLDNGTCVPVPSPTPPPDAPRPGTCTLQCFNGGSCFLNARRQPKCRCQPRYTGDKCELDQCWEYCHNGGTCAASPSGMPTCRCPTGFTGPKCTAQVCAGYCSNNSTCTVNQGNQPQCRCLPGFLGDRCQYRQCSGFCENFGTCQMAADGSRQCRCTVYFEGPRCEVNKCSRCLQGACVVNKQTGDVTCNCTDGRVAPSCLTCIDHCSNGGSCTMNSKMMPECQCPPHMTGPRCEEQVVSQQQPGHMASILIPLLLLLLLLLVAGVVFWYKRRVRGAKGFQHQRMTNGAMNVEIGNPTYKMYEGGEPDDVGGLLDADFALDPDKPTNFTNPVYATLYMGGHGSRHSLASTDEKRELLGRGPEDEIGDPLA

These are yes or no findings as the source states them, for the method shown. Some results given as binding are weak or reduced against the parent protein; the word gives no strength.

For experiment [1], the target named is T1, α2M activated by methylamine (α2M*) (human) (UniProt P01023).
T1 sequence (activated by methylamine; 125I-labelled where used as tracer, looked up): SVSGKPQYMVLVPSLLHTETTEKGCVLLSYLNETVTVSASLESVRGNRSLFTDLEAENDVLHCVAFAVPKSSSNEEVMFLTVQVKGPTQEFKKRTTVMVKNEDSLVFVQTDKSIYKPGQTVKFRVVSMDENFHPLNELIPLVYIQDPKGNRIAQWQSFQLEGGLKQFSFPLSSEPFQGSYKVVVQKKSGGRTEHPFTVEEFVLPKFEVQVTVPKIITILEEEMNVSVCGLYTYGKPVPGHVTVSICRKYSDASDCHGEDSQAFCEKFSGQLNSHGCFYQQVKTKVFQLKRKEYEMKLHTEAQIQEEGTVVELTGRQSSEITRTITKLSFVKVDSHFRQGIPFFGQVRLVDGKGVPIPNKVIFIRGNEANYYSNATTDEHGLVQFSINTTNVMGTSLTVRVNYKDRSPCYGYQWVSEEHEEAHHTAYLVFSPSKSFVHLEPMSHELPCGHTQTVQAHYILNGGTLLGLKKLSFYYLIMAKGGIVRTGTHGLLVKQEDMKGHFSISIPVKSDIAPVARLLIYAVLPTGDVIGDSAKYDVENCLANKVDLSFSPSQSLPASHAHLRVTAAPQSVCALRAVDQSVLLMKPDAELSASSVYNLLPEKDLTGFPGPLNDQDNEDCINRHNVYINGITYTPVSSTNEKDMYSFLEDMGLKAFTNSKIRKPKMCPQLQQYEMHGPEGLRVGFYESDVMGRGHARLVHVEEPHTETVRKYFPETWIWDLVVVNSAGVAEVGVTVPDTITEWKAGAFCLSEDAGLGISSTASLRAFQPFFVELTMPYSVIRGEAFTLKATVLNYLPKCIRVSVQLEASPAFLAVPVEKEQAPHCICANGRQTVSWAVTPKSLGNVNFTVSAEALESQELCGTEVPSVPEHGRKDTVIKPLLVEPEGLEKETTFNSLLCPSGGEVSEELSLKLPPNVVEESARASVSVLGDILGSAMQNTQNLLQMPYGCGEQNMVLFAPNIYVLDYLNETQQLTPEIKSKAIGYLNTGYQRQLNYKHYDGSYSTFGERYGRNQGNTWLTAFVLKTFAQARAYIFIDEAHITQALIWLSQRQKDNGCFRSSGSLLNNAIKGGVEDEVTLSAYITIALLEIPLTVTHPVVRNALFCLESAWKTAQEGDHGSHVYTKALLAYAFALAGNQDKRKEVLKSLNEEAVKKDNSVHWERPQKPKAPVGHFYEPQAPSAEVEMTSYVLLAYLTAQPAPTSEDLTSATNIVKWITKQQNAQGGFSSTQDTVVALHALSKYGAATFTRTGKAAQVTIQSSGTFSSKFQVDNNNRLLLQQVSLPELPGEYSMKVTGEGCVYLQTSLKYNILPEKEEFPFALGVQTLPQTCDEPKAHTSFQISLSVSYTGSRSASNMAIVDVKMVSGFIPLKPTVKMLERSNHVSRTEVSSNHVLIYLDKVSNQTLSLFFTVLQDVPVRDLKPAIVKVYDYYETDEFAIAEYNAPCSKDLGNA
Put plainly: α2M*-Sepharose 4B affinity chromatography of Triton X-100 extracts of bovine liver plasma membranes, 4 mM Ca2+, eluted with 10 mM EDTA.

In experiment [2] the target is T1, α2M activated by methylamine (α2M*) (human). Put plainly: α2M*-Sepharose affinity chromatography at pH 6 and 5.
The target is the same in experiment [3]. Put plainly: α2M*-affinity column chromatography at acidic pH.
Experiment [4] addresses LRP-1 in mouse embryonic fibroblasts (MEF cells) (mouse) (UniProt Q91ZX7). Put plainly: specific binding of 2 nM 125I-α2M* to MEF cells at pH 7.4, 0 C.
Experiment [5] has the same target. Nature of the experiment: cell surface binding of 125I-α2M* to MEF cells at pH 7.4, 0 C.

B1: bovine annexin VI (~68 kDa protein purified from bovine liver plasma membranes) (protein, UniProt P79134 2-673, looked up)
chain: AKPAQGAKYRGSIRDFPDFNPSQDAETLYNAMKGFGSDKEAILELITSRSNRQRQEICQNYKSLYGKDLIADLKYELTGKFERLIVGLMRPPAYADAKEIKDAISGIGTDEKCLIEILASRTNEQIHQLVAAYKDAYERDLEADITGDTSGHFRKMLVVLLQGTREEDDVVSEDLVQQDVQDLYEAGELKWGTDEAQFIYILGNRSKQHLRLVFDEYLKTTGKPIEASIRGELSGDFEKLMLAVVKCIRSTAEYFAERLFKAMKGLGTRDNTLIRIMVSRSELDMLDIREIFRTKYEKSLYSMIKNDTSGEYKKTLLKLCGGDDDAAGQFFPEAAQVAYQMWELSAVARVELKGTVRPAGDFNPDADAKALRKAMKGLGTDEDTIIDIIAHRSNAQRQQIRQTFKSHFGRDLMADLKSELSGDLARLILGLMMPPAHYDAKQLKKAMEGAGTDEKALIEILATRTNAEIQAINKAYKEDYHKSLEDALSSDTSGHFKRILISLATGNREEGGEDRERAREDAQVAAEILEIADTTSGDKSSLETRFMMILCTRSYPHLRRVFQEFIKMTNYDVEHTIKKEMSGDVRDVFVAIVQSVKNKPLFFADKLYKSMKGAGTDEKTLTRIMVSRSEIDLLNIRREFIEKYDKSLHQAIEGDTSGHFLKALLAICGGED
With B1, the binding result in experiment [1], in experiment [2] and in experiment [3] was “binds” each time.

B2: α2M activated by methylamine (α2M*) (ligand, human, UniProt P01023 24-1474, looked up)
chain: SVSGKPQYMVLVPSLLHTETTEKGCVLLSYLNETVTVSASLESVRGNRSLFTDLEAENDVLHCVAFAVPKSSSNEEVMFLTVQVKGPTQEFKKRTTVMVKNEDSLVFVQTDKSIYKPGQTVKFRVVSMDENFHPLNELIPLVYIQDPKGNRIAQWQSFQLEGGLKQFSFPLSSEPFQGSYKVVVQKKSGGRTEHPFTVEEFVLPKFEVQVTVPKIITILEEEMNVSVCGLYTYGKPVPGHVTVSICRKYSDASDCHGEDSQAFCEKFSGQLNSHGCFYQQVKTKVFQLKRKEYEMKLHTEAQIQEEGTVVELTGRQSSEITRTITKLSFVKVDSHFRQGIPFFGQVRLVDGKGVPIPNKVIFIRGNEANYYSNATTDEHGLVQFSINTTNVMGTSLTVRVNYKDRSPCYGYQWVSEEHEEAHHTAYLVFSPSKSFVHLEPMSHELPCGHTQTVQAHYILNGGTLLGLKKLSFYYLIMAKGGIVRTGTHGLLVKQEDMKGHFSISIPVKSDIAPVARLLIYAVLPTGDVIGDSAKYDVENCLANKVDLSFSPSQSLPASHAHLRVTAAPQSVCALRAVDQSVLLMKPDAELSASSVYNLLPEKDLTGFPGPLNDQDNEDCINRHNVYINGITYTPVSSTNEKDMYSFLEDMGLKAFTNSKIRKPKMCPQLQQYEMHGPEGLRVGFYESDVMGRGHARLVHVEEPHTETVRKYFPETWIWDLVVVNSAGVAEVGVTVPDTITEWKAGAFCLSEDAGLGISSTASLRAFQPFFVELTMPYSVIRGEAFTLKATVLNYLPKCIRVSVQLEASPAFLAVPVEKEQAPHCICANGRQTVSWAVTPKSLGNVNFTVSAEALESQELCGTEVPSVPEHGRKDTVIKPLLVEPEGLEKETTFNSLLCPSGGEVSEELSLKLPPNVVEESARASVSVLGDILGSAMQNTQNLLQMPYGCGEQNMVLFAPNIYVLDYLNETQQLTPEIKSKAIGYLNTGYQRQLNYKHYDGSYSTFGERYGRNQGNTWLTAFVLKTFAQARAYIFIDEAHITQALIWLSQRQKDNGCFRSSGSLLNNAIKGGVEDEVTLSAYITIALLEIPLTVTHPVVRNALFCLESAWKTAQEGDHGSHVYTKALLAYAFALAGNQDKRKEVLKSLNEEAVKKDNSVHWERPQKPKAPVGHFYEPQAPSAEVEMTSYVLLAYLTAQPAPTSEDLTSATNIVKWITKQQNAQGGFSSTQDTVVALHALSKYGAATFTRTGKAAQVTIQSSGTFSSKFQVDNNNRLLLQQVSLPELPGEYSMKVTGEGCVYLQTSLKYNILPEKEEFPFALGVQTLPQTCDEPKAHTSFQISLSVSYTGSRSASNMAIVDVKMVSGFIPLKPTVKMLERSNHVSRTEVSSNHVLIYLDKVSNQTLSLFFTVLQDVPVRDLKPAIVKVYDYYETDEFAIAEYNAPCSKDLGNA
modifications: activated by methylamine; 125I-labelled where used as tracer
For B2, the binding entry in experiment [4] and in experiment [5] was “binds” throughout.
